# Data as given in PubChem BioAssay AID2685 (National Center for Advancing Translational Sciences (NCATS), 2010).
# The list shows a part of the results. Further columns of the screen follow, without active or inactive calls. Compounds called inactive in the main read-out are mostly missing here. The note in brackets gives the kind of curve behind each potency; many fits are weak.
# Assay: qHTS Assay for Lipid Storage Modulators in Drosophila S3 Cells;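 on cell number change: cells counted by Cell Tracker Red CMTPX staining in the red channel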
# Conditions: BODIPY lipid droplet fluorescence, 18-24 h; for cell number change: measured here: cell count max response, cells fed with added oleic acid
# Summary of the method: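 Drosophila S3 cells loaded with oleic acid (400 uM, as added) and compounds at several concentrations; lipid droplets imaged by 488-nm laser-scanning cytometry, 500–530 nm intensity and object ratio to cell channel. Percent activity normalized to 20 uM Triacsin C.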
# [1] = measured here: cell number channel AC50, cells fed with added oleic acid
# [2] = measured here: lipid fluorescence (Fed channel) AC50, cells fed with added oleic acid
structure (smiles),measurement,setting,value
COC(=O)/C(C(C)=O)=C(/C=C/C=C/N(C)C)N(C)C,cell number change,,-31.9%
same,AC50,[1],"18400 nM [falling, single point]"
same,AC50,[2],"29100 nM [falling, single point]"
CCOc1ccc(OCCNC(=O)c2oc3ccccc3c2COC)cc1,cell number change,,1.94%
same,AC50,[2],"25900 nM [falling, single point]"
CCn1nnnc1SCC(=O)Nc1nc(-c2cccs2)cs1,cell number change,,-33%
same,AC50,[1],"29100 nM [falling, single point]"
same,AC50,[2],"29100 nM [falling, single point]"
Cc1ccc(OCCOC(=O)c2sc(=S)n(C)c2C)cc1,cell number change,,4.94%
same,AC50,[2],"29100 nM [falling, single point]"
COC(=O)c1cc(Br)ccc1OC(=O)c1cccnc1,cell number change,,2.35%
same,AC50,[2],"4.61 nM [falling, full curve, poor fit]"
O=C(NCc1cccnc1)C1CCC(CNS(=O)(=O)c2ccc(Cl)cc2)CC1 (stereo not given),AC50,[1],"2310 nM [rising, single point]"
same,AC50,[2],"4110 nM [rising, single point]"
COc1ccc(/C=N/n2c(C)nc3ccccc3c2=O)cc1OC,cell number change,,44.7%
same,AC50,[1],"11600 nM [rising, partial curve, poor fit]"
CSc1nc2ccc3nc(NC(=O)c4ccccc4)sc3c2s1,cell number change,,-31%
same,AC50,[1],"20600 nM [falling, single point]"
same,AC50,[2],"13000 nM [falling, partial curve]"
CCOc1ccc(-c2nc(-c3cccnc3)no2)cc1OCC,cell number change,,-4.92%
same,AC50,[2],"20600 nM [rising, single point]"
O=C(/C=C/c1ccccc1Cl)N1CCN(c2ncccn2)CC1,cell number change,,40.8%
same,AC50,[1],"651 nM [rising, full curve]"
same,AC50,[2],"2060 nM [rising, partial curve]"
CCOC(=O)c1c(O)c2c(n(Cc3ccco3)c1=O)CCCC2,cell number change,,-0.195%
same,AC50,[2],"146 nM [falling, full curve]"
CC12CCC(C/C1=N/O)C2(C)C (stereo not given),cell number change,,-51.6%
same,AC50,[1],"3260 nM [falling, single point]"
same,AC50,[2],"4.11 nM [falling, full curve, poor fit]"
CC(C)C[C@H](NC(=O)C1CCN(S(=O)(=O)c2ccccc2)CC1)C(=O)NCc1ccccn1,AC50,[2],"5170 nM [falling, single point]"
CN(C)Cc1c(O)ccc2cc(-c3nc4ccccc4n3C)c(=O)oc12,cell number change,,-35.7%
same,AC50,[1],"32600 nM [falling, single point]"
same,AC50,[2],"651 nM [falling, partial curve, poor fit]"
CCc1nc(NCCN2CCOCC2)c(C#N)c2c1CCCC2,cell number change,,-33.5%
same,AC50,[1],"651 nM [falling, full curve]"
same,AC50,[2],"130 nM [falling, full curve, poor fit]"
CCOCCCNC(=O)N[C@@H](C)C(=O)OC,cell number change,,-0.624%
CC(C)c1ccc([N+](=O)[O-])cc1S(=O)(=O)N1CCN(C)CC1,cell number change,,42.2%
same,AC50,[1],"29100 nM [rising, single point]"
C=CCc1cccc2cc(C(=O)N3CCN(C(=O)OCC)CC3)c(=O)oc12,AC50,[1],"2590 nM [rising, partial curve]"
same,AC50,[2],"580 nM [rising, single point]"
COc1ccc(C(=O)COC(=O)/C=C/c2ccccc2)cc1,cell number change,,-0.232%
same,AC50,[2],"562 nM [rising, full curve, poor fit]"
O=C(NCCNC(=O)c1ccccc1F)c1ccccn1,cell number change,,2.63%
same,AC50,[2],"6310 nM [rising, single point]"
CCC(C)NC(=O)CSc1nnc(-c2cc(-c3cccs3)nc3ccccc23)o1 (stereo not given),cell number change,,104%
same,AC50,[1],"920 nM [rising, full curve]"
same,AC50,[2],"259 nM [rising, partial curve]"
CC1(C)NC(=O)N(CC(O)CN2CCCCC2)C1=O (stereo not given),cell number change,,-23.2%
same,AC50,[1],"5.8 nM [falling, full curve, poor fit]"
same,AC50,[2],"7310 nM [falling, partial curve]"
CCN(CC)S(=O)(=O)c1cccc(NC(=O)CSc2nnc(N)s2)c1,cell number change,,14.1%
CC(=O)c1c(C)[nH]c(C(=O)CSc2nnc(NC3CC3)s2)c1C,cell number change,,73.1%
same,AC50,[1],"2060 nM [rising, partial curve, poor fit]"
COc1ccc2[nH]c(=O)c(CN(Cc3cccs3)C(=S)Nc3ccccc3)cc2c1,cell number change,,13%
same,AC50,[2],"3260 nM [rising, full curve]"
CN(CC(=O)Nc1ccc(F)cc1)C(=O)C1CCN(S(=O)(=O)c2ccc3c(c2)OCCO3)CC1,cell number change,,0.942%
same,AC50,[1],"4610 nM [falling, single point]"
same,AC50,[2],"6510 nM [falling, single point]"
COc1ccc(/C=C2/SC(=S)N(NS(=O)(=O)c3ccc(C)cc3)C2=O)cc1,cell number change,,5.71%
same,AC50,[1],"116 nM [rising, partial curve, poor fit]"
COc1ccccc1-n1cc(C(=O)N2CCCC(CO)(Cc3ccccc3C)C2)cn1 (stereo not given),cell number change,,23%
same,AC50,[2],"13000 nM [rising, partial curve, poor fit]"
COc1ccc(CCC(=O)NCc2cnn(C)c2)cc1,cell number change,,-1.13%
same,AC50,[2],"651 nM [falling, single point]"
CCOC(=O)c1c(C)[nH]c(C(=O)CN2C(=O)NC(CC)(c3ccccc3)C2=O)c1C (stereo not given),cell number change,,-15.9%
same,AC50,[2],"651 nM [falling, partial curve, poor fit]"
O=C(Nc1cccnc1)C1CCCN(c2ncnc3c2nc2n3CCCCC2)C1 (stereo not given),AC50,[2],"580 nM [rising, single point]"
COc1ccc(-c2noc(CCC(=O)N3CCN(Cc4ccccc4)CC3)n2)cc1,cell number change,,31%
same,AC50,[1],"25900 nM [rising, single point]"
COc1ccc(NC(=S)N2CCN(S(=O)(=O)c3ccccc3)CC2)cc1,cell number change,,19.9%
COc1ccc(-c2csc3ncnc(Oc4ccc5c(C)cc(=O)oc5c4)c23)cc1,cell number change,,3.74%
same,AC50,[2],"731 nM [rising, full curve]"
Clc1ccc(/C=C/c2nc(Cl)c(-c3ccc(Cl)cc3)c(Cl)n2)cc1,cell number change,,-8.87%
same,AC50,[2],"164 nM [falling, full curve, poor fit]"

# Not a retest: entries from further up.
structure (smiles),measurement,setting,value
COc1ccc(/C=N/n2c(C)nc3ccccc3c2=O)cc1OC,AC50,[1],"11600 nM [rising, partial curve, poor fit]"
CSc1nc2ccc3nc(NC(=O)c4ccccc4)sc3c2s1,cell number change,,-31%
same,AC50,[1],"20600 nM [falling, single point]"
same,AC50,[2],"13000 nM [falling, partial curve]"
CCOc1ccc(-c2nc(-c3cccnc3)no2)cc1OCC,cell number change,,-4.92%
same,AC50,[2],"20600 nM [rising, single point]"
O=C(/C=C/c1ccccc1Cl)N1CCN(c2ncccn2)CC1,cell number change,,40.8%
same,AC50,[1],"651 nM [rising, full curve]"
same,AC50,[2],"2060 nM [rising, partial curve]"
CCOC(=O)c1c(O)c2c(n(Cc3ccco3)c1=O)CCCC2,cell number change,,-0.195%
same,AC50,[2],"146 nM [falling, full curve]"
CC12CCC(C/C1=N/O)C2(C)C (stereo not given),cell number change,,-51.6%
same,AC50,[1],"3260 nM [falling, single point]"
same,AC50,[2],"4.11 nM [falling, full curve, poor fit]"
